{"source": "patent US8710095B2", "about": "“Drugs for prophylaxis or mitigation of taxane-induced neurotoxicity” (Bionumerik Pharmaceuticals, Inc., priority 2002, dated 2014)", "system": "patients with advanced solid tumors", "assay": "Phase I study in the United States: 2,2′-dithiobis ethane sulfonate with paclitaxel and cisplatin, incidence of neurotoxicity", "format": "in vivo, human", "conditions": "36 patients", "procedure": "In the Phase I study in the United States, human patients in Stage I received the following treatment regimen every 3 weeks: a single dose of paclitaxel (175 mg/m^2) administered intravenously over 3 hours, pre-cisplatin saline hydration (1000 mL 0.9% NaCl) for 2 hours, followed immediately by a single dose of 2,2′-dithiobis ethane sulfonate (4.1, 8.2, 12.3, 18.4, 27.6 and 41.0 g/m^2, depending on cohort assignment) administered intravenously over 15 or 30 minutes, a single dose of cisplatin (75 mg/m^2) administered intravenously over 1 hour and subsequently post-cisplatin saline hydration (500 cc 0.9% NaCl) for 1 hour.\nA total of 36 patients (22 patients in Stage I and 14 patients in Stage II) with advanced solid tumors have been enrolled and treated in this study at two clinical sites in the United States. A total of 138 treatment courses of BNP7787 with chemotherapy were given to 36 patients giving an average number of 3.8 treatment cycles per patient. A total of 13 patients (36.1%) completed at least five treatment cycles while 5 patients (13.9%) completed at least seven treatment cycles.\nThe number and percentage of patients who reported neurotoxicity in the Phase I studies compared with historical control data are summarized on the next page. Severity grades were measured according to NCI-CTC standards.", "data": [{"smiles": "O=S(=O)([O-])CCSSCCS(=O)(=O)[O-].[Na+].[Na+]", "note": "[2,2′-dithiobis ethane sulfonate]", "values": [{"measurement": "patients who completed at least five treatment cycles", "result": 36.1, "unit": "%"}, {"measurement": "patients who completed at least seven treatment cycles", "result": 13.9, "unit": "%"}]}]}
